{
  "sequences": {"note": "Chains of the proteins cited; added tags and fusions are not shown.", "UniProt P27695, whole entry": "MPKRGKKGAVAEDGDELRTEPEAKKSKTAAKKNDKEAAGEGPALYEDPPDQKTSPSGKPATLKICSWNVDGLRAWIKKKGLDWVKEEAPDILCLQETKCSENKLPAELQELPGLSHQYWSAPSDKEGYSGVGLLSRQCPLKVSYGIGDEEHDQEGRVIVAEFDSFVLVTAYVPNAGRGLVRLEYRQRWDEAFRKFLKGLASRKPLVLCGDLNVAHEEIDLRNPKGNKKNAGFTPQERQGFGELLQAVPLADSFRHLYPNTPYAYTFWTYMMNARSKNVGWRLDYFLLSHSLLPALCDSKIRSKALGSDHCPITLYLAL"},
  "source": "patent US9315481B2",
  "about": "“Compounds and methods for treating leukemia” (INDIANA UNIVERSITY RESEARCH AND TECHNOLOGY CORPORATION, priority 2012, dated 2016)",
  "molecular_target": "Ref-1 (Homo sapiens, UniProt P27695)",
  "assay": "Ref-1 expression in T-ALL cells",
  "format": "cell-based",
  "note": "At least one compound was matched to its structure with a doubt left.",
  "data": [
    {"smiles": "C[C@@H]1C[C@H]2[C@@H]3CCC4=CC(=O)C=C[C@]4(C)[C@@]3(F)[C@@H](O)C[C@]2(C)[C@@]1(O)C(=O)CO", "note": "[Dexamethasone]", "values": [
      {"measurement": "levels of Ref-1 transcripts", "value": "does not result in increased levels"},
      {"measurement": "Ref-1 expression", "setting": "T-ALL cells", "value": "upregulate"}
    ]}
  ]
}
